Data as given in publication doi:10.1101/2023.06.26.546597 (bioRxiv, 2023).
Numbering of substitutions follows the chain as printed. In names and notes the source's numbering stands. These are yes or no findings as the source states them, for the method shown. Some results given as binding are weak or reduced against the parent protein; the word gives no strength. Tags and fused reporters may be left off the sequences shown.

B1: YisK (BSU10750), bacterial two-hybrid fusion (enzyme, UniProt O06724 1-301)
chain: MKFATGELYNRMFVGLIIDDEKIMDLQKAEKKLFELETIPGSLIECIAEGDKFVAHARQLAEWAKKPNDELGSFMYSLSEVKLHAPIPKPSKNIICIGKNYRDHAIEMGSEADIPEHPMVFTKSPVTVTGHGDIVKSHEEVTSQLDYEGELAVVIGKSGTRISKEDAYDHVFGYTIVNDITARDLQKRHKQFFIGKSLDTTCPMGPVLVHKSSIQEPERLKVETRVNGELRQSGSASDMIFSIPELIETLSKGMTLEAGDIIATGTPSGVGKGFTPPKFLRSGDKIDITIDPIGTLSNQIG
B2: YisK E30A, bacterial two-hybrid fusion (enzyme, UniProt O06724 1-301)
chain: B1 chain with E30A

Legend:
Assay in all cases: two-hybrid
[1] = target: T1, FtsE, bacterial two-hybrid fusion (B. subtilis) (UniProt O34814)
T1 sequence: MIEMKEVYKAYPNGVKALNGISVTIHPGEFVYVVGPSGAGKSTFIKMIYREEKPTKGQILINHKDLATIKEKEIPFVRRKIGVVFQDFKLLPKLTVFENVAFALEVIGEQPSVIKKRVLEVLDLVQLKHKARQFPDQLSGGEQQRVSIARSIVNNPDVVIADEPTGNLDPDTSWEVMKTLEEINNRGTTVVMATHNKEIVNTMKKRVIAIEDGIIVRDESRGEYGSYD

[2] = target: T2, Mbl, bacterial two-hybrid fusion (B. subtilis) (UniProt P39751)
T2 sequence: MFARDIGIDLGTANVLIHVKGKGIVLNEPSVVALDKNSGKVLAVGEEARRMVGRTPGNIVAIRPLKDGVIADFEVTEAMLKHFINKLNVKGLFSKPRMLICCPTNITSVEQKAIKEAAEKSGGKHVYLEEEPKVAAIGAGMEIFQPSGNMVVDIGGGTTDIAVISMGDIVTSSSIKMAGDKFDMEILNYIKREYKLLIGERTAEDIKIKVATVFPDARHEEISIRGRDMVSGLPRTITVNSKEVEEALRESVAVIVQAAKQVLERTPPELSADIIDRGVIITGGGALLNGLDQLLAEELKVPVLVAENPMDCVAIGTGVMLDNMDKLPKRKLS

[3] = target: YisK (BSU10750), bacterial two-hybrid fusion (B. subtilis 168) (UniProt O06724)
[4] = target: YisK E30A, bacterial two-hybrid fusion (B. subtilis 168) (UniProt O06724)

Binder | binding [1] | binding [2] | binding [3] | binding [4]
B1 | binds | no binding | binds | –
B2 | – | – | – | binds
